Assay results from article doi:10.1101/2025.01.26.634929.

The chains behind the UniProt entries cited, without tags or fusion partners.
UniProt P35637: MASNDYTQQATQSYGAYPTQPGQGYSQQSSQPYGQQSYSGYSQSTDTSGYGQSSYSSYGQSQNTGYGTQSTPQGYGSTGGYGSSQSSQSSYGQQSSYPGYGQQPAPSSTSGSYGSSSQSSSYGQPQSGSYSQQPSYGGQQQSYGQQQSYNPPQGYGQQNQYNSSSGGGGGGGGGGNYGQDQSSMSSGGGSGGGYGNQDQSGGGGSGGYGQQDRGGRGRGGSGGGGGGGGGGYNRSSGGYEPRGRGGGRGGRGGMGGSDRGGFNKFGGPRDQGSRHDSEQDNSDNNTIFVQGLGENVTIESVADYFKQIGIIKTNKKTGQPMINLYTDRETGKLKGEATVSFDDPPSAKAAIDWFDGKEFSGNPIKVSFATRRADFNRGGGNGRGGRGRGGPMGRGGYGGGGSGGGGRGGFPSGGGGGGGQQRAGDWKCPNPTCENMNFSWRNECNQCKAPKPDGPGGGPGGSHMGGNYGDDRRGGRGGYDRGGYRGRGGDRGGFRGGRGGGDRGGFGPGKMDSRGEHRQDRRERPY

Molecular target: AGO1 fused with C-terminal Flag- and HA-epitope tags (e-AGO1) (human) (UniProt Q9UL18)
Assay: affinity purification with mass spectrometry

binding | Substance
binds | HNRNPK (from UniProt P61978 1-463)
binds | FUS (from UniProt P35637 1-526)

No constants are given. Whether binding was seen depends on the method and setting. Binding seen in cells or lysates may run through a third protein. A yes stands for co-enrichment or nearness to the bait. Other partners may have been found.
